{"source": "patent US7179597B2", "about": "“Genetic diagnosis for QT prolongation related adverse drug reactions” (Georgetown University, priority 2000, dated 2007)", "origin": "cited, not measured here", "key": {"[1]": {"details": "cited from earlier work"}, "CYP3A": {"system": "CYP3A", "details": "Table 3; cited from earlier work"}}, "note": "Read-outs that look alike come from different tables or passages of the source."}
{"smiles": "CCCCc1oc2ccccc2c1C(=O)c1cc(I)c(OCCN(CC)CC)c(I)c1", "note": "[Amiodarone]", "values": [{"measurement": "QT", "setting": "[1]; Table 2, drug labeling", "value": "Yes"}, {"measurement": "QT", "setting": "[1]; Table 3", "value": "Yes"}, {"measurement": "Interactions: cytochrome P-450 isoform 3A, substrate or inhibitor", "setting": "CYP3A", "value": "Inhibitor"}]}
